Like-named read-outs stand apart in the source and are kept apart here. No constants are given. Whether binding was seen depends on the method and setting. In cells and extracts the contact can be indirect. These calls come from enrichment with a bait or labelling near it, and not all partners need be listed. Sequences can lack the tags named with a protein.
Legend:
Test in all cases: affinity purification with mass spectrometry; 3×Flag-tagged bait from inflorescence of transgenic Arabidopsis (WT, sdg26 and fld backgrounds) bound to ANTI-FLAG M2 agarose at 4°C, lysis buffer 50 mM Tris-HCl pH 7.6, 150 mM NaCl, 0.1% NP-40; eluted with 3×Flag peptides
[1] = target: T1, EFL2 (ELF4-like protein), EFL2-3×Flag in transgenic Arabidopsis (Arabidopsis thaliana) (UniProt Q94BS8)
T1 sequence: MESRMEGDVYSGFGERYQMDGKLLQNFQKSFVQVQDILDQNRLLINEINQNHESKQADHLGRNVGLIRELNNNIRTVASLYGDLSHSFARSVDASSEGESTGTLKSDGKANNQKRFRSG

Chains of the proteins cited; added tags and fusions are not shown. Lines headed by an entry give the natural chain unless they say otherwise; changes in a name come on top.
UniProt Q9XIE1: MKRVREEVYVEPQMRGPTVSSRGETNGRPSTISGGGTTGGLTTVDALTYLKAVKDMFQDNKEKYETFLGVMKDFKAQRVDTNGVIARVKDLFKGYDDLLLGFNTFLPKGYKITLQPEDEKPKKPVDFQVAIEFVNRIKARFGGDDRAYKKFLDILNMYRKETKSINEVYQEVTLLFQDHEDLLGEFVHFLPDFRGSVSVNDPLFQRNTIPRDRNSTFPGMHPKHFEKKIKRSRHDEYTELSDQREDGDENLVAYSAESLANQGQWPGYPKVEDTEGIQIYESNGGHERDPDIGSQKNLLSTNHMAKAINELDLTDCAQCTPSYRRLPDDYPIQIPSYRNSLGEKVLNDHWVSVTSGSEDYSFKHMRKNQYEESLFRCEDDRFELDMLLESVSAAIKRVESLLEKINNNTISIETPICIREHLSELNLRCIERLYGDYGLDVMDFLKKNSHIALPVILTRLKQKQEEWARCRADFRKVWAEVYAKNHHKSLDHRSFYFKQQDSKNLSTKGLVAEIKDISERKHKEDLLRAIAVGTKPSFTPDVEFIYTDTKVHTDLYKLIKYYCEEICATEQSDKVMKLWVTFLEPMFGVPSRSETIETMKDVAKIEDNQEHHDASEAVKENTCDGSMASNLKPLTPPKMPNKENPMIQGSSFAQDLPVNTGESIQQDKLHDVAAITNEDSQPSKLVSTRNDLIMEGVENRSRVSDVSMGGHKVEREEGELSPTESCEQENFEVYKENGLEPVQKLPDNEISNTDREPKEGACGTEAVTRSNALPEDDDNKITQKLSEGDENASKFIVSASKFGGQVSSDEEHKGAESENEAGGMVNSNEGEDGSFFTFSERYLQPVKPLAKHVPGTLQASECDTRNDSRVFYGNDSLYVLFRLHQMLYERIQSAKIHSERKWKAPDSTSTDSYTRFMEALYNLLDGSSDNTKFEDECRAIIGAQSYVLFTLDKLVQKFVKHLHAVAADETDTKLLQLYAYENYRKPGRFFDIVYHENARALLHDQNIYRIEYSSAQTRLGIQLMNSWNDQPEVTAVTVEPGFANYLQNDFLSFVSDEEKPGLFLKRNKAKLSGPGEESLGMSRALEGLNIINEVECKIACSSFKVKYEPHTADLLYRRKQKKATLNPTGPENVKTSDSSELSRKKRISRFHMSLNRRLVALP
UniProt Q9XIK6: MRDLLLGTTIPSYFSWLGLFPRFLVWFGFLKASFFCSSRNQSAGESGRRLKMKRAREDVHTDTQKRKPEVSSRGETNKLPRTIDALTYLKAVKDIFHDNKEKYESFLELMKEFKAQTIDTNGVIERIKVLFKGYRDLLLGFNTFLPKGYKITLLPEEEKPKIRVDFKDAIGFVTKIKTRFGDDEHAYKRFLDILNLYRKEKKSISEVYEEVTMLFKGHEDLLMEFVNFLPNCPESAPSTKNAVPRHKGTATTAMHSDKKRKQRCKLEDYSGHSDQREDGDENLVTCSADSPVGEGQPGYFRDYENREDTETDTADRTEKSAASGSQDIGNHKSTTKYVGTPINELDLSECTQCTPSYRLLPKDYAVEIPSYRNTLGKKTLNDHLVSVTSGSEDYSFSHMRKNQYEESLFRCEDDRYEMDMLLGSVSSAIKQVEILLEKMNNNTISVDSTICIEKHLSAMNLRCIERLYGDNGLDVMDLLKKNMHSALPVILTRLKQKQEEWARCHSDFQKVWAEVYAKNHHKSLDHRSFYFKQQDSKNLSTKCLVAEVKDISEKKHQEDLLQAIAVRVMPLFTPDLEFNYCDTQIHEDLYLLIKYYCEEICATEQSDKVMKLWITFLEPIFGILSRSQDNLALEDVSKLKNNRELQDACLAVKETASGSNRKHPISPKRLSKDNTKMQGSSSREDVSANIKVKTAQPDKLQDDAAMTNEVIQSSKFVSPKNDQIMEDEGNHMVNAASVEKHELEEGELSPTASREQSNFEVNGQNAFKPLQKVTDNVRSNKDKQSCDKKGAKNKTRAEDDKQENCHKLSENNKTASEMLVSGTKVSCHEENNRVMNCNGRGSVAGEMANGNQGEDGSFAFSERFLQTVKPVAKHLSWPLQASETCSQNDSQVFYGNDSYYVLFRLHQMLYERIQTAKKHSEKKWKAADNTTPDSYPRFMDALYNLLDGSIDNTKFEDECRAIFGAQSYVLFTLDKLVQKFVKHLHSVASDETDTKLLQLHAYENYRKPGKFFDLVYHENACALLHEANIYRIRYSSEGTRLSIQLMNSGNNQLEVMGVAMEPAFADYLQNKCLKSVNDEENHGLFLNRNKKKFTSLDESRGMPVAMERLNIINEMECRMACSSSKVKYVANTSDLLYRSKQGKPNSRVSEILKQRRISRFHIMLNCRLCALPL
UniProt F4KB26: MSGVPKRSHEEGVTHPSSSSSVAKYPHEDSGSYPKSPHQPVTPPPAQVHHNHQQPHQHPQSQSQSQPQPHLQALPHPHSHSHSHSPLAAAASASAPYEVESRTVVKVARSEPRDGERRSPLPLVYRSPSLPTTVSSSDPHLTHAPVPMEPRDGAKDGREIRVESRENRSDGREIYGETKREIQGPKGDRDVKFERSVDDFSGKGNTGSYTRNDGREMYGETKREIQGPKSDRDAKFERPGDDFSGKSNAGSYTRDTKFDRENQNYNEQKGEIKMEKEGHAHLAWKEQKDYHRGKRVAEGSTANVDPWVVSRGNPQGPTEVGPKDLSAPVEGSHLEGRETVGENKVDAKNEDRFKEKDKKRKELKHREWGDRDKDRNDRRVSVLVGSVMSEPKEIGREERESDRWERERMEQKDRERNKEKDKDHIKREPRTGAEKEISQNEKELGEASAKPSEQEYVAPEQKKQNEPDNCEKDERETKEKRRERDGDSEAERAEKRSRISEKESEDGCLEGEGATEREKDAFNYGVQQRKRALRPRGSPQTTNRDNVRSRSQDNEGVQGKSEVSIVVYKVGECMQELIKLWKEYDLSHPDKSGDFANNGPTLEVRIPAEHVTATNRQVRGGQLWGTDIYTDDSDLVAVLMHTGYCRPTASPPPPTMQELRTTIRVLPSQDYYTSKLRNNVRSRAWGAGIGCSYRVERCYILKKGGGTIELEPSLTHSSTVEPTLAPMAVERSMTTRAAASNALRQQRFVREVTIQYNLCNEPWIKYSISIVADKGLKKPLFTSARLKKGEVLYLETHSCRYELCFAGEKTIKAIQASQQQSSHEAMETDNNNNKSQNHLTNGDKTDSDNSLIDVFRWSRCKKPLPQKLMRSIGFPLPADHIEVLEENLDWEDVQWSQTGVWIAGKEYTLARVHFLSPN

[2] = target: T2, EFL4 (ELF4-like protein), EFL4-3×Flag in transgenic Arabidopsis (Arabidopsis thaliana) (UniProt Q570U6)
T2 sequence: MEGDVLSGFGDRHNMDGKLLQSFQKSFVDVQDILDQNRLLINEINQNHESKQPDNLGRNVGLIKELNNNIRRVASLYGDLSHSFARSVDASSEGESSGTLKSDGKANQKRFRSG

[3] = target: T1, EFL2 (ELF4-like protein), EFL2-3×Flag in transgenic Arabidopsis (Arabidopsis thaliana); remark: listed apart in the source
[4] = target: T2, EFL4 (ELF4-like protein), EFL4-3×Flag in transgenic Arabidopsis (Arabidopsis thaliana); remark: listed apart in the source
[5] = target: T3, SDG26, SDG26-3×Flag in transgenic Arabidopsis (Arabidopsis thaliana) (UniProt Q84WW6)
T3 sequence: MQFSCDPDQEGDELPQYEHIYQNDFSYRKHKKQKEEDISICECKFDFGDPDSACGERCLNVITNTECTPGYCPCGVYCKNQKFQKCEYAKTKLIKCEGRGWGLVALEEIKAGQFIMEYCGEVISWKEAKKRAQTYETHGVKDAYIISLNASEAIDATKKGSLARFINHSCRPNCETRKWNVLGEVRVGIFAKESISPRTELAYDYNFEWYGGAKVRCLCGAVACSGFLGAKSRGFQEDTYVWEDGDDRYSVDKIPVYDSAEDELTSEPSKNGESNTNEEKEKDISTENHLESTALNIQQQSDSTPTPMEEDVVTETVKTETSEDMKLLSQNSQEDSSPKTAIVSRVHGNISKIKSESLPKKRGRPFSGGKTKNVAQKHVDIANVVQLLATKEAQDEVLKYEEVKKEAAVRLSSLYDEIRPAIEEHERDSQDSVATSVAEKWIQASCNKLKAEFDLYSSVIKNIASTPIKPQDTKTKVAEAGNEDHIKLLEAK

[6] = target: T4, LD (LU…), LD-3×Flag in transgenic Arabidopsis (Arabidopsis thaliana) (UniProt Q38796)
T4 sequence: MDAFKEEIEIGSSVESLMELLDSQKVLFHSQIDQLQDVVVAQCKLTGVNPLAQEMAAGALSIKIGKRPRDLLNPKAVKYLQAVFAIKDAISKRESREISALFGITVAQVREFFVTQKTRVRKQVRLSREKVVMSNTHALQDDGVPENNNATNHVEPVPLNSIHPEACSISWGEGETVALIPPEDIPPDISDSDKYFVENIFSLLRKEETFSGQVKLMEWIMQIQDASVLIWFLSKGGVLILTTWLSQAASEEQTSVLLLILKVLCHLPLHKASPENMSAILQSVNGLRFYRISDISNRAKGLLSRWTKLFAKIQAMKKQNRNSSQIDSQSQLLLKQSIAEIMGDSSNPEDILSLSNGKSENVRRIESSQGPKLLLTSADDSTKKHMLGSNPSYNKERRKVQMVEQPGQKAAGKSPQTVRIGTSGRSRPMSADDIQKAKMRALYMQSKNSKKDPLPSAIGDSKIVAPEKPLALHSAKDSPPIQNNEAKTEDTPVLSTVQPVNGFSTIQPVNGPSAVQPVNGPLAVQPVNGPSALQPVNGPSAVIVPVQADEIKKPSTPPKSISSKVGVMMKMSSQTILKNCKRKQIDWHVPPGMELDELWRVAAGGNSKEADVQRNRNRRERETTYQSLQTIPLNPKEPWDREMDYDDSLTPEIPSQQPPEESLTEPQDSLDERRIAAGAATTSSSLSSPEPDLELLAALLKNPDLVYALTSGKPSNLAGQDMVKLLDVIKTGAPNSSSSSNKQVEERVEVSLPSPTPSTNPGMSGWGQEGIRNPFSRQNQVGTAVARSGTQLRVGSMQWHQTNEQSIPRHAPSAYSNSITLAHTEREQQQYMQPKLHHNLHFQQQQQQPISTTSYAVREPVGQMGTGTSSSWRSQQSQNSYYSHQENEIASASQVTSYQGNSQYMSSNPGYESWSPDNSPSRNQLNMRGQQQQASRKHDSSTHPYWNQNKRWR

Question: For “SNL5 (histone deacetylase complex component) (from UniProt Q9XIE1 1-1162)”, which binding [1] is on record?
Answer: binds

Question: And the binding [2]?
Answer: binds

Question: What does the source list for “SNL6 (histone deacetylase complex component) (from UniProt Q9XIK6 1-1173)”?
Answer: binding [1]: binds; binding [2]: binds

Question: “HDC1 (histone deacetylase complex component) (from UniProt F4KB26)” was tested. Which binding [1] did it give?
Answer: binds

Question: What about the binding [2] of the same molecule?
Answer: binds

B1: GST-FLD, full-length (natural protein, Arabidopsis thaliana, UniProt Q9CAE3 1-789, looked up)
chain: MVSFSAPKKRRRGRSQRSMSSLNSLPVPNVGLLPGNSNFVSSSASSSGRFNVEVVNGSNQTVKSYPGIGDEIITINKEATTEALLALTAGFPADSLTEEEIEFGVVPIVGGIEQVNYILIRNHIISKWRENISSWVTKEMFLNSIPKHCSSLLDSAYNYLVTHGYINFGIAQAIKDKFPAQSSKSSVIIVGAGLSGLAAARQLMRFGFKVTVLEGRKRPGGRVYTKKMEANRVGAAADLGGSVLTGTLGNPLGIIARQLGSSLYKVRDKCPLYRVDGKPVDPDVDIKVEVAFNQLLDKASKLRQLMGDVSMDVSLGAALETFRQVSGNDVATEEMGLFNWHLANLEYANAGLVSKLSLAFWDQDDPYDMGGDHCFLPGGNGRLVQALAENVPILYEKTVQTIRYGSNGVKVTAGNQVYEGDMVLCTVPLGVLKNGSIKFVPELPQRKLDCIKRLGFGLLNKVAMLFPYVFWSTDLDTFGHLTEDPNYRGEFFLFYSYAPVAGGALLIALVAGEAAHKFETMPPTDAVTRVLHILRGIYEPQGINVPDPLQTVCTRWGGDPFSLGSYSNVAVGASGDDYDILAESVGDGRLFFAGEATTRRYPATMHGAFVTGLREAANMAQSAKARGIRKRIDRNPSRNAHSCAILLADLFRDPDLEFGSFCIIFSRRNPDPKSPAILRVTLSEPRKRNEDPKADQHSNKILFQQLQSHFNQQQQIQVYTLLTRQQALDLREVRGGDEKRLYYLCETLGVKLVGRKGLGVGADSVIASIKAERTGRKLPSSSTSGTKSG
notes: FLD (FLOWERING LOCUS D), Arabidopsis thaliana; cDNA encoding full-length FLD in pGEX-6P-1; source: E. coli Transetta (DE3), purified (Glutathione Sepharose 4B)
Question: B1 was tested. Which binding [3] did it give?
Answer: binds

Question: And the binding [4]?
Answer: binds

Question: And the binding [5]?
Answer: binds

Question: What about the binding [6] of the same molecule?
Answer: binds
